Some of the results follow. Small differences around the control level are noise.

The chains behind the UniProt entries cited, without tags or fusion partners. Where a name states a change or a piece, a line headed by the entry shows the natural chain unless it says otherwise.
UniProt Q2VY69: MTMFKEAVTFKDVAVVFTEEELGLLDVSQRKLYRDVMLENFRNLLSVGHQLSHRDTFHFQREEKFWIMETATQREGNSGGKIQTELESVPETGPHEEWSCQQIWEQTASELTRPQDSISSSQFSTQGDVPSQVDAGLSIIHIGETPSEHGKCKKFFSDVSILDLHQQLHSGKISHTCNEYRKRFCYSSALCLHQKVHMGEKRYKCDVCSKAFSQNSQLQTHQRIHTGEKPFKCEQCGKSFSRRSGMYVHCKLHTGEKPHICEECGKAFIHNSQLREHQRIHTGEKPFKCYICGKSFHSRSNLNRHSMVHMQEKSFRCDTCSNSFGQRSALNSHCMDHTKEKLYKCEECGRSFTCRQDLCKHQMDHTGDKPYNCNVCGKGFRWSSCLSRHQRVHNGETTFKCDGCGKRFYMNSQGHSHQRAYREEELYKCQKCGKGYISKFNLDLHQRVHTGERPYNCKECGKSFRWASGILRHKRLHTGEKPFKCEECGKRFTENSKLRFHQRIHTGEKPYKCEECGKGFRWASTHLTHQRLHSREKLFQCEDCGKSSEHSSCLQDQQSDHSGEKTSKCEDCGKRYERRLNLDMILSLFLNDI
UniProt Q32P51: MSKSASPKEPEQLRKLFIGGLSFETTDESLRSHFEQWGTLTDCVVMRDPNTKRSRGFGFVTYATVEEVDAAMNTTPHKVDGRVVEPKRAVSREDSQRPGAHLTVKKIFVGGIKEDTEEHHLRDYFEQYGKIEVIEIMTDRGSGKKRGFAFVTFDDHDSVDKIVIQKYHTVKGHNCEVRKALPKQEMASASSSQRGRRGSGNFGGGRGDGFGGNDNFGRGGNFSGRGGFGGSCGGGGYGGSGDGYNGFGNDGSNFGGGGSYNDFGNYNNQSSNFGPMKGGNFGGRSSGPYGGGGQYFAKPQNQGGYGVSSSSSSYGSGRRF
UniProt Q15361: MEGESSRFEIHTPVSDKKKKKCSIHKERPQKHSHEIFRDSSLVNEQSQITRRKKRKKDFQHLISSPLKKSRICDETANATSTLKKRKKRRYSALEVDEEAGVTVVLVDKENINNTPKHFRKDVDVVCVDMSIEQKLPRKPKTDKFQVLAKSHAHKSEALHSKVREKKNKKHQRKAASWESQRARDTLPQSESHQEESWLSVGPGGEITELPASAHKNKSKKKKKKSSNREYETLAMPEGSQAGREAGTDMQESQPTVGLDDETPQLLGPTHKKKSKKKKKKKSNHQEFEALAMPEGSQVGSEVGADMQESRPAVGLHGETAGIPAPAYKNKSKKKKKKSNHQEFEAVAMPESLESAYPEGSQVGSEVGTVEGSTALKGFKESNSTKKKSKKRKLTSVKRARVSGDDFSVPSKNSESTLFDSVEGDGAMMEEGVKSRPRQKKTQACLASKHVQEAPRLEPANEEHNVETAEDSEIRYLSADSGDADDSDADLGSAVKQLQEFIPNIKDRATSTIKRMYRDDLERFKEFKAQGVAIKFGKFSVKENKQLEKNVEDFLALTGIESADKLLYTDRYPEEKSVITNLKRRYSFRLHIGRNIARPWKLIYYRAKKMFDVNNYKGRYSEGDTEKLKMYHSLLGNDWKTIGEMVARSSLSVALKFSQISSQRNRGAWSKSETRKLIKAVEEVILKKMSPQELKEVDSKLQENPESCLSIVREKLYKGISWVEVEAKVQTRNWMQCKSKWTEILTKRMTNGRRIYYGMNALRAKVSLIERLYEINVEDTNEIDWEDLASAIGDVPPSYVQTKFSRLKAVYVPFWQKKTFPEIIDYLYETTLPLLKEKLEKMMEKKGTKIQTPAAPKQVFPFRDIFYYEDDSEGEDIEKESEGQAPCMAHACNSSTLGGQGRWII
UniProt Q16385, whole entry: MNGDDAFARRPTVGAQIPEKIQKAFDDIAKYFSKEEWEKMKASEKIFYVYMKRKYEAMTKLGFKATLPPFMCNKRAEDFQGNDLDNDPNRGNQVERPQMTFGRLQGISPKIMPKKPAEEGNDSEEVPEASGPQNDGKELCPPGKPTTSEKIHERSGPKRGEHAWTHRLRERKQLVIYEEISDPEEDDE
UniProt Q15813: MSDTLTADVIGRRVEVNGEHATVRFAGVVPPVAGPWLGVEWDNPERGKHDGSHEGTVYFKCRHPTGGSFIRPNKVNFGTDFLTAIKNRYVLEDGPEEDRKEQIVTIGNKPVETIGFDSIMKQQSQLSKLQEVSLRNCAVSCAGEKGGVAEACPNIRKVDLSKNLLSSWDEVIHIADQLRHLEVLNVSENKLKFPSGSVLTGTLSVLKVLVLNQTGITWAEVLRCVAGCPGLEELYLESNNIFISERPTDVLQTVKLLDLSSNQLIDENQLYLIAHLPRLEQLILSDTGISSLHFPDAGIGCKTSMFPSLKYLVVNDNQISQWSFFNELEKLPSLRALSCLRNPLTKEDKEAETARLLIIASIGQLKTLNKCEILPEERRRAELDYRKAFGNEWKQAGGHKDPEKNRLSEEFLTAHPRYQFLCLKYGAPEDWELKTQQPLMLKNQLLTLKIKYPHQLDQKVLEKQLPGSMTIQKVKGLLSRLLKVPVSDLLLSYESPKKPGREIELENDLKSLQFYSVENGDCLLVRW
UniProt Q15042: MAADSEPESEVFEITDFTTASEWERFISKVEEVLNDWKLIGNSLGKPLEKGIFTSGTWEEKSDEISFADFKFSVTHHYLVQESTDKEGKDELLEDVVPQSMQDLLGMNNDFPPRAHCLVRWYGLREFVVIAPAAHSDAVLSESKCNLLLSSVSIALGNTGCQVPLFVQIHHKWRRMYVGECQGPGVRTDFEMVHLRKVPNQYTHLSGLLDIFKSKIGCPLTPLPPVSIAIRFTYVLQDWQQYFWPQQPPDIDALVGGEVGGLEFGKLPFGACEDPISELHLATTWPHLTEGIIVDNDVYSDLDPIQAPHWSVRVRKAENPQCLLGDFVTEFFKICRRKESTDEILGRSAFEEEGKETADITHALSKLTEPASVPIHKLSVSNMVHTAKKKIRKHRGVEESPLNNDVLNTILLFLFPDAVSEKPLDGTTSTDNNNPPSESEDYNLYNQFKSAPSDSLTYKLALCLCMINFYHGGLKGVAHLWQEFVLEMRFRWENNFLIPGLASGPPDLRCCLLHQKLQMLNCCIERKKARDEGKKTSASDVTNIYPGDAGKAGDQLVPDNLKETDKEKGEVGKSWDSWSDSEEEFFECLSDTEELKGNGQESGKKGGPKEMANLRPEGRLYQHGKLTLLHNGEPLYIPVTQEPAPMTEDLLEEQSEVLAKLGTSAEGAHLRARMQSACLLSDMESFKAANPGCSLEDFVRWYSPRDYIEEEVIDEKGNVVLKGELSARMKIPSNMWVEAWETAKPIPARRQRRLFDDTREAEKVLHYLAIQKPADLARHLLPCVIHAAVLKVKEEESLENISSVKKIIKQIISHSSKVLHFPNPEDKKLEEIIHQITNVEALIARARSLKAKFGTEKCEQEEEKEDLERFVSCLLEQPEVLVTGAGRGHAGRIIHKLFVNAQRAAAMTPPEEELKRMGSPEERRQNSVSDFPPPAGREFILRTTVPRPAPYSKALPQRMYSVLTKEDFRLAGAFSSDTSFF
UniProt Q16740, whole entry: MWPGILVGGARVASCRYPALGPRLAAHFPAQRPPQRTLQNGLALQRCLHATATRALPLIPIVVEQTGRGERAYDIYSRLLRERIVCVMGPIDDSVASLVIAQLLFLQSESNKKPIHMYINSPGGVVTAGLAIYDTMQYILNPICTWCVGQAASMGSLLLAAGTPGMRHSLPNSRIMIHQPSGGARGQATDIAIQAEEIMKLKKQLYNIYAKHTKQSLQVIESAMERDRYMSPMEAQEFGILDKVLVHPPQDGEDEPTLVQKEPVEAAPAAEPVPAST
UniProt Q16881, whole entry: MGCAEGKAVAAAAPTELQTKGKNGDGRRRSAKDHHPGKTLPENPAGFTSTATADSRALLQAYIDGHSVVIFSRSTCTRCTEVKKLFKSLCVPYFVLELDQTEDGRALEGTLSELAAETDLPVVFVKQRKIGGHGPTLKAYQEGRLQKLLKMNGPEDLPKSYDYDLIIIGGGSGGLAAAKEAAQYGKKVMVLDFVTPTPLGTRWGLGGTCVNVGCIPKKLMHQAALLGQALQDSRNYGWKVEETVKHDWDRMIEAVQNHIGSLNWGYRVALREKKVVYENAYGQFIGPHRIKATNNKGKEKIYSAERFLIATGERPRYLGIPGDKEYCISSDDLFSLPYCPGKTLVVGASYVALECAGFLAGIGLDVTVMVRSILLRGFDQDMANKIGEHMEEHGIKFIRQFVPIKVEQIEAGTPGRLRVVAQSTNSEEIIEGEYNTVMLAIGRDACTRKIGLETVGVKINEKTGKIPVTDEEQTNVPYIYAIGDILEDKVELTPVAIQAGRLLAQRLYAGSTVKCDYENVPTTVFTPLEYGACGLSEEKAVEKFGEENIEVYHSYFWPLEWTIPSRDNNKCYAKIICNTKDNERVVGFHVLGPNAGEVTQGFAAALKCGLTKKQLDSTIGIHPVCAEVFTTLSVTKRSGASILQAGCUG
UniProt Q15631: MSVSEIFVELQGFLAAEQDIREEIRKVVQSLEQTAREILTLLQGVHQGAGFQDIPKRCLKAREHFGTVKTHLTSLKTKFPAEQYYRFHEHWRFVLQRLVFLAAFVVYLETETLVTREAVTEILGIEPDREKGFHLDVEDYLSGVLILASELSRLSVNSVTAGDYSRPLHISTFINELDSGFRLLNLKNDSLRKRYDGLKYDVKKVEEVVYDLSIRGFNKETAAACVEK
UniProt Q2KHT3: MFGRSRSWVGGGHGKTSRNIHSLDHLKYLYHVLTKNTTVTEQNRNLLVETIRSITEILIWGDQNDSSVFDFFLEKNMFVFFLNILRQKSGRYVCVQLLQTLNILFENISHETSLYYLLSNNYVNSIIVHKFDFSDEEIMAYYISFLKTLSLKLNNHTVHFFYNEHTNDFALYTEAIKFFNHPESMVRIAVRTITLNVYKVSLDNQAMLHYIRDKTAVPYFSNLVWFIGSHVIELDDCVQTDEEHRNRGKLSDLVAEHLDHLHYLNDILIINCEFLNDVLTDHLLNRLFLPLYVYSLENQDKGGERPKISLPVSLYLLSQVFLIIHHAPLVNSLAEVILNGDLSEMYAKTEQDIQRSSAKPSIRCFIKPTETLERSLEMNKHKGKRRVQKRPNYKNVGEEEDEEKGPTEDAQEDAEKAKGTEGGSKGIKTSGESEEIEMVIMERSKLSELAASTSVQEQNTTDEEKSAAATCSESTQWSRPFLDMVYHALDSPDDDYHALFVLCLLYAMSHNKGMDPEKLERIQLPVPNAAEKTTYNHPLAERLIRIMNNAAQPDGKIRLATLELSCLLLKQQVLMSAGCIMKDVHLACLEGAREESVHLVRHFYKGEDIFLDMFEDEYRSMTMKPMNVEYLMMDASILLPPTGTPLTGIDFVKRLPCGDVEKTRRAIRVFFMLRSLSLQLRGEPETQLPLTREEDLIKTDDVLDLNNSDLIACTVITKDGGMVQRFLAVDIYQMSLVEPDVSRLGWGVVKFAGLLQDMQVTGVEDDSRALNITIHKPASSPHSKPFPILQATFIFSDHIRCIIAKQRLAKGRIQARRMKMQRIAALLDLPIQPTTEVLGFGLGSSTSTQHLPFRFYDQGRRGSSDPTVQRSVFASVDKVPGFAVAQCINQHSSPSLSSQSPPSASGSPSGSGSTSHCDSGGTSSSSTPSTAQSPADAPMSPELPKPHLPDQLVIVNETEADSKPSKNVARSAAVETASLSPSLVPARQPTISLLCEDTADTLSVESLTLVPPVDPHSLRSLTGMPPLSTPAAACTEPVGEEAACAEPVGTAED
UniProt Q309B1, whole entry: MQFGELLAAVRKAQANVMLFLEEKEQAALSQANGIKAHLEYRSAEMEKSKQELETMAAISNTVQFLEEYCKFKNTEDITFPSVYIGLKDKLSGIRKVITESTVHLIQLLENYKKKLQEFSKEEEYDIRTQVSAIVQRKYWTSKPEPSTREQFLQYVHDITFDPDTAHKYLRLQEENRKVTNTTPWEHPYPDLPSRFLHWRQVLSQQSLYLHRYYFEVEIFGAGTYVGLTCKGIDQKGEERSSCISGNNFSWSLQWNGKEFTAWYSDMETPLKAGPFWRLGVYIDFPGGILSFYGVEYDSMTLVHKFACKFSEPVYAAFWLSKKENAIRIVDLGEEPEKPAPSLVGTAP
UniProt Q15257: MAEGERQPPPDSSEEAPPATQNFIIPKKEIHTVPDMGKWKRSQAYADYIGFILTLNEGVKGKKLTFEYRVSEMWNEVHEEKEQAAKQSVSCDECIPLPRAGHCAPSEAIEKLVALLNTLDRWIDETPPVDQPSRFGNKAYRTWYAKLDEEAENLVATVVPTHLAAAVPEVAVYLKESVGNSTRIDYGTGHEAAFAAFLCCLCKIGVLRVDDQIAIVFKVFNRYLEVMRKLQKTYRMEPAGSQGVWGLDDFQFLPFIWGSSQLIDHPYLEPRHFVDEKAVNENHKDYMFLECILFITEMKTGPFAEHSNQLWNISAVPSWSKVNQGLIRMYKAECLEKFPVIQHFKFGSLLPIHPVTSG

Compound in the assay: Cc1nc(Nc2ncc(C(=O)Nc3c(C)cccc3Cl)s2)cc(N2CCN(CCO)CC2)n1 [dasatinib]
Briefly: log2 fold change of tryptic peptide abundance, ligand vs vehicle (limited proteolysis) (log2 ratio); higher = more trypsin-susceptible (destabilized). The conditions noted are these: ligand concentration: 5 uM; sample: K562 cleared lysate.
Consider “TPD52L1 (peptide sequence: VETTVTSLK, peptide start residue: 154) (UniProt Q16890)”, for which the log2 fold change stood at 0.1.

Consider “UniProt Q2VY69 (peptide sequence: CQKCGKGYISK, peptide start residue: 429)”, for which the log2 fold change amounted to 0.163.

As for “UniProt Q15973 (peptide sequence: GEDQSIEDQYK, peptide start residue: 56)”, the log2 fold change was 0.618.

With “PFKFB3 (peptide sequence: QENVLVICHQAVLR, peptide start residue: 380) (UniProt Q16875)”, the log2 fold change was -0.744.

In the case of “HERC1 (peptide sequence: VLAENGHNSDCASSPVVHEDVEMR, peptide start residue: 2537) (UniProt Q15751)”, the log2 fold change was -0.706.

“TRADD (peptide sequence: NLKCGSGAR, peptide start residue: 161) (UniProt Q15628)”: the log2 fold change was -0.169.

Take “UniProt Q15365 (peptide sequence: QGANINEIRQMSGAQIK, peptide start residue: 298)”: the log2 fold change turned out to be 0.331.

For the target “HNRNPA1L2 (peptide sequence: EDSQRPGAHLTVKK, peptide start residue: 93) (UniProt Q32P51)”, the log2 fold change came to 0.132.

For “PLCL1 (peptide sequence: KMLTAYDLMIQESR, peptide start residue: 966) (UniProt Q15111)”, the log2 fold change stood at 0.363.

“ZYX (peptide sequence: SSTKPAAGGTAPLPPWK, peptide start residue: 185) (UniProt Q15942)”: the log2 fold change was determined as 0.2.

Turning to “MAD2L1BP (peptide sequence: VLILLGGNALSPK, peptide start residue: 150) (UniProt Q15013)”, the log2 fold change is -0.258.

Take “UniProt Q15697 (peptide sequence: SPLLQEPTPK, peptide start residue: 195)”: the log2 fold change came to 0.379.

On to “MAPKAPK3 (peptide sequence: LTDFGFAK, peptide start residue: 205) (UniProt Q16644)”, for which the log2 fold change was 0.192.

In the case of “QSER1 (peptide sequence: IQLYSLYHSLHHYK, peptide start residue: 1666) (UniProt Q2KHR3)”, the log2 fold change was -0.7.

“TTF1 (peptide sequence: HSHEIFR, peptide start residue: 32) (UniProt Q15361)”: the log2 fold change is -0.408.

On to “TST (peptide sequence: FQLVDSR, peptide start residue: 177) (UniProt Q16762)”, for which the log2 fold change came to 0.302.

Regarding “ATP6AP1 (peptide sequence: SEDVPYTAALTAVRPSR, peptide start residue: 212) (UniProt Q15904)”, the log2 fold change was found to be 0.202.

“EFTUD2 (peptide sequence: NVTLCGHLHHGK, peptide start residue: 131) (UniProt Q15029)”: the log2 fold change was -0.391.

“SSX2 (peptide sequence: RPTVGAQIPEKIQK, peptide start residue: 10) (UniProt Q16385)”: the log2 fold change was -0.137.

Regarding “UniProt Q15418 (peptide sequence: EAIDHEKK, peptide start residue: 211)”, the log2 fold change is -0.285.

As to “C18orf21 (peptide sequence: NYTLSFK, peptide start residue: 79) (UniProt Q32NC0)”, the log2 fold change was found to be 0.654.

As for “CCDC57 (peptide sequence: AGELQDLEAMSR, peptide start residue: 246) (UniProt Q2TAC2)”, the log2 fold change turned out to be 0.591.

In the case of “UniProt Q2KJY2 (peptide sequence: SSGLASK, peptide start residue: 1792)”, the log2 fold change stood at 0.0209.

On to “TBCE (peptide sequence: HLEVLNVSENK, peptide start residue: 180) (UniProt Q15813)”, for which the log2 fold change was -0.279.

For the target “UniProt Q15042 (peptide sequence: LQMLNCCIERK, peptide start residue: 517)”, the log2 fold change is -0.326.

As for “CLPP (peptide sequence: QLYNIYAK, peptide start residue: 204) (UniProt Q16740)”, the log2 fold change was -0.442.

For “NOMO1 (peptide sequence: ALGQAASDNSGPEDAKR, peptide start residue: 1196) (UniProt Q15155)”, the log2 fold change was -0.109.

Regarding “TXNRD1 (peptide sequence: LMHQAALLGQALQDSR, peptide start residue: 219) (UniProt Q16881)”, the log2 fold change was 0.462.

As for “UniProt Q15631 (peptide sequence: YDGLKYDVK, peptide start residue: 195)”, the log2 fold change was found to be 0.268.

Consider “CLEC16A (peptide sequence: IMNNAAQPDGK, peptide start residue: 546) (UniProt Q2KHT3)”, for which the log2 fold change was -0.298.

“UniProt Q309B1 (peptide sequence: LQEENRK, peptide start residue: 388)”: the log2 fold change came to 0.251.

Regarding “UniProt Q15257 (peptide sequence: LVALLNTLDR, peptide start residue: 112)”, the log2 fold change was 0.416.

Consider “PROSER3 (peptide sequence: KLEQAQGSKGDR, peptide start residue: 295) (UniProt Q2NL68)”, for which the log2 fold change was 0.532.

For the target “LLGL1 (peptide sequence: LTAHEGCR, peptide start residue: 849) (UniProt Q15334)”, the log2 fold change was -0.256.

For “TNIP1 (peptide sequence: VPEVVALGAAEK, peptide start residue: 290) (UniProt Q15025)”, the log2 fold change is -0.474.

For “SF3A2 (peptide sequence: QFFLQFHFK, peptide start residue: 205) (UniProt Q15428)”, the log2 fold change was 0.282.

These data come from the supplement of paper PMC12819154, “High-throughput peptide-centric local stability assay extends protein–ligand identification to membrane proteins, tissues and bacteria” (Nature Structural & Molecular Biology, 2025).
